Experimental data reported in the supplement of paper PMC6411743.
± gives the standard deviation of the averaged measurements. Only a part is listed here, and it is no random draw.

What was measured:
Experiment in all cases: NP40-soluble protein abundance relative to vehicle (solubility fold change) (ratio); higher = more soluble protein in presence of ATP
[1] = biological target: T1, ANKMY2 (UniProt Q8IV38)
T1 sequence (whole entry): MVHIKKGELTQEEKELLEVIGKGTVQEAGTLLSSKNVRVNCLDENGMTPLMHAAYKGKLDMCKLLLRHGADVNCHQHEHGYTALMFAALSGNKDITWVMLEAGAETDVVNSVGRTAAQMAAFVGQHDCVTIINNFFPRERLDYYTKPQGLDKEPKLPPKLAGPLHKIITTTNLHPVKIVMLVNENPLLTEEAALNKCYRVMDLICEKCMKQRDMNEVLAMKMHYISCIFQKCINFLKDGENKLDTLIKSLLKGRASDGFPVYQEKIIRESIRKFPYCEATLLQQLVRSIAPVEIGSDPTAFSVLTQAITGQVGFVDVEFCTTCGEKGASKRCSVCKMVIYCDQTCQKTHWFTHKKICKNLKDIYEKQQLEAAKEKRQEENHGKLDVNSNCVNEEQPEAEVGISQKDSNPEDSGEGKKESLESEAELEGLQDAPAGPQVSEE
Procedure, shortened: (§1)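 Across three independent experiments, values are fold changes against the detergent-processed vehicle for each replicate, based on vsn-normalised intensities. The samples were Jurkat crude lysate treated with eight concentrations (0.1 to 10 mM) for 10 min at room temperature and then 3 min at 37 °C. Lysate was solubilised with 0.8% NP40 and benzonase, ultracentrifuged, and the supernatant analysed by TMT-labelled LC-MS/MS.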

[2] = biological target: T2, ENOSF1 (UniProt Q7L5Y1)
T2 sequence (whole entry): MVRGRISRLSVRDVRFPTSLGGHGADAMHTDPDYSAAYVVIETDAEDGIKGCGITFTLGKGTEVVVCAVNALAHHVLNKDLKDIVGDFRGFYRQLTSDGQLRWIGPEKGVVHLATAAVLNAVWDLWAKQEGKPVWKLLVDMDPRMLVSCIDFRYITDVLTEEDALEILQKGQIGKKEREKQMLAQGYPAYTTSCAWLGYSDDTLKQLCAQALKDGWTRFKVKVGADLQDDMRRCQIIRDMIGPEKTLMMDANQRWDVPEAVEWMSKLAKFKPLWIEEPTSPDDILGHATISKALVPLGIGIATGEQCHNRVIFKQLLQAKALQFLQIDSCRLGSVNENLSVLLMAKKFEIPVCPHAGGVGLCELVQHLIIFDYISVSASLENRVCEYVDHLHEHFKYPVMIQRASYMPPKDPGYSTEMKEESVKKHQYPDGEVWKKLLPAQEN
Procedure, shortened: as §1

[3] = biological target: T3, ISCA2 (UniProt Q86U28)
T3 sequence (whole entry): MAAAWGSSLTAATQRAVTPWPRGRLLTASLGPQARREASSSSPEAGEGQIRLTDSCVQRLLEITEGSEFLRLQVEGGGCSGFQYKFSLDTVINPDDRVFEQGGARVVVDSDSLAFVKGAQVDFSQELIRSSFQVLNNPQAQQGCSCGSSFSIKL
Procedure, shortened: as §1

[4] = biological target: T4, NUFIP2 (UniProt Q7Z417)
T4 sequence (whole entry): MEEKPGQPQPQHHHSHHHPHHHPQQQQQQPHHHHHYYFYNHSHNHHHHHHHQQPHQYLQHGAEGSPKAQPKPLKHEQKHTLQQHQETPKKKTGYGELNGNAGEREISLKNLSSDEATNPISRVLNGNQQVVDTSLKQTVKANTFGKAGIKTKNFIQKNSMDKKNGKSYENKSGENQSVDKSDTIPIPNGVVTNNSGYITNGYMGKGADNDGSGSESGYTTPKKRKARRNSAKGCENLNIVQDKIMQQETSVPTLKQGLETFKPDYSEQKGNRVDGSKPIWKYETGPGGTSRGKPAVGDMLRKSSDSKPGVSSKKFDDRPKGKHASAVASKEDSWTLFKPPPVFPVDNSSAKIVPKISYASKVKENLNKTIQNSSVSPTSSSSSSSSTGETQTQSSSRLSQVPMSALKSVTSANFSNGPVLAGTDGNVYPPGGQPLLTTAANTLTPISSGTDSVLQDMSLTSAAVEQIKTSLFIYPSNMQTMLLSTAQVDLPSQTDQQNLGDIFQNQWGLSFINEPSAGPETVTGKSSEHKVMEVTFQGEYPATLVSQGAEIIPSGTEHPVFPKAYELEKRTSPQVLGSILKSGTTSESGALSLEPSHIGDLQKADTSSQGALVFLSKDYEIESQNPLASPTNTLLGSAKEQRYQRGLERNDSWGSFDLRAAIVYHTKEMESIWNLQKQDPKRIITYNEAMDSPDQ
Procedure, shortened: as §1

[5] = biological target: T5, PLD3 (UniProt Q8IV08)
T5 sequence (whole entry): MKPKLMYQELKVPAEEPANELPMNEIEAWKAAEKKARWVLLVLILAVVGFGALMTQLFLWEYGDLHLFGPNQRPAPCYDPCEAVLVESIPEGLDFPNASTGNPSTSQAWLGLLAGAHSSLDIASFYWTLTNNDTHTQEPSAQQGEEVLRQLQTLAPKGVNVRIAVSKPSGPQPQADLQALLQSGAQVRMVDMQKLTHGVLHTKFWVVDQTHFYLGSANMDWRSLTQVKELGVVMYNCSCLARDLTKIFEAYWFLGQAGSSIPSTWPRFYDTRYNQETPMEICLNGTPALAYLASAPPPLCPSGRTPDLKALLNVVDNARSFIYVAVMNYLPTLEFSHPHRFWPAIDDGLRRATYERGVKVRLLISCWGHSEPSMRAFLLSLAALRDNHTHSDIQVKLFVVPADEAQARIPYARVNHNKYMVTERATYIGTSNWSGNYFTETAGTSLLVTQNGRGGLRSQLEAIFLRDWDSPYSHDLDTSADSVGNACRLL
Procedure, shortened: as §1

For `Nc1ncnc2c1ncn2[C@@H]1O[C@H](COP(=O)(O)OP(=O)(O)OP(=O)(O)O)[C@@H](O)[C@H]1O` [adenosine triphosphate], the NP40-soluble protein abundance ([1]; concentration: 1mM) was 0.95 ± 0.0076, the NP40-soluble protein abundance ([1]; concentration: 2mM) was 0.97 ± 0.021 and the NP40-soluble protein abundance ([1]; concentration: 4mM) was 0.928 ± 0.034. For the same compound, the NP40-soluble protein abundance ([1]; concentration: 6mM) was 0.951 ± 0.024, the NP40-soluble protein abundance ([1]; concentration: 8mM) was 0.935 ± 0.044 and the NP40-soluble protein abundance ([1]; concentration: 10mM) was 0.945 ± 0.035. It also gave an NP40-soluble protein abundance ([2]; concentration: 1mM) of 1.02 ± 0.066, an NP40-soluble protein abundance ([2]; concentration: 2mM) of 1.03 ± 0.038 and an NP40-soluble protein abundance ([2]; concentration: 4mM) of 1.01 ± 0.06. For the same compound, the NP40-soluble protein abundance ([2]; concentration: 6mM) was 0.967 ± 0.069, the NP40-soluble protein abundance ([2]; concentration: 8mM) was 1.02 ± 0.02 and the NP40-soluble protein abundance ([2]; concentration: 10mM) was 1.02 ± 0.028. For the same compound, the NP40-soluble protein abundance ([3]; concentration: 1mM) was 0.986 ± 0.032, the NP40-soluble protein abundance ([3]; concentration: 2mM) was 0.972 ± 0.033 and the NP40-soluble protein abundance ([3]; concentration: 4mM) was 0.997 ± 0.081. It also gave an NP40-soluble protein abundance ([3]; concentration: 6mM) of 0.967 ± 0.058, an NP40-soluble protein abundance ([3]; concentration: 8mM) of 0.946 ± 0.063 and an NP40-soluble protein abundance ([3]; concentration: 10mM) of 0.983 ± 0.065. It also gave an NP40-soluble protein abundance ([4]; concentration: 1mM) of 1.06 ± 0.096, an NP40-soluble protein abundance ([4]; concentration: 2mM) of 1.14 ± 0.09 and an NP40-soluble protein abundance ([4]; concentration: 4mM) of 1.22 ± 0.084. It also gave an NP40-soluble protein abundance ([4]; concentration: 6mM) of 1.43 ± 0.11, an NP40-soluble protein abundance ([4]; concentration: 8mM) of 1.39 ± 0.1 and an NP40-soluble protein abundance ([4]; concentration: 10mM) of 1.52 ± 0.093. The NP40-soluble protein abundance ([5]; concentration: 1mM) was 0.914 ± 0.019, the NP40-soluble protein abundance ([5]; concentration: 2mM) was 0.951 ± 0.11 and the NP40-soluble protein abundance ([5]; concentration: 4mM) was 0.916 ± 0.067. It also gave an NP40-soluble protein abundance ([5]; concentration: 6mM) of 0.906 ± 0.067, an NP40-soluble protein abundance ([5]; concentration: 8mM) of 0.863 ± 0.044 and an NP40-soluble protein abundance ([5]; concentration: 10mM) of 0.924 ± 0.046.
